Test results taken from patent US20240165226A1, “COMBINATION TREATMENT OF CD38-EXPRESSING TUMORS” (GENMAB A/S, priority 2006, published 2024).

System: frozen human tissue
Assay: Immunohistochemistry on human tissues
Format: binding
Details: liver endothelium

B1: -024: human monoclonal IgG1 anti-CD38 antibody, VL region SEQ ID No:22 and VH region SEQ ID No:27 (antibody, listed as Homo sapiens, V domains shown)
VH: EVQLVQSGAEVKKPGESLKISCKGSGYSFSNYWIGWVRQMPGKGLEWMGIIYPHDSDARYSPSFQGQVTFSADKSISTAYLQWSSLKASDTAMYYCARHVGWGSRYWYFDLWGRGTLVTVSS
VL: EIVLTQSPATLSLSPGERATLSCRASQSVSSYLAWYQQKPGQAPGLLIYDASNRASGIPARFSGSGSGTDFTLTISSLEPEDFAVYYCQQRSNWPLTFGGGTKVEIK
staining of endothelial cells: No staining
